Source: PMC3623771
Results are given in words; binding and its absence hold for the method and conditions named. Binding seen in cells or lysates may run through a third protein. Some binding calls cover weakened binding; strength is not graded here.

Chains of the proteins cited; added tags and fusions are not shown.
UniProt Q03135: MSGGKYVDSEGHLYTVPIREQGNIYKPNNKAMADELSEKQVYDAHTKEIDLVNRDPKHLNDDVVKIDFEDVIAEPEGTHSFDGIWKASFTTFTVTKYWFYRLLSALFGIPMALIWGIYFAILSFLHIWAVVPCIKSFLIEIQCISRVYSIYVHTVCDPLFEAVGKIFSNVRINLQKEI

Target: Caveolin-1 (Cav1) (UniProt Q03135)
Test: co-IP; AGS/Cav1 cells infected with H. pylori G27 (MOI = 100) for 16 h; total cell lysates subjected to CoIP using antibodies against Cav1 and DLC1, detection by WB

binding: binds
B1: p120 Rho GTPase-activating protein/deleted in liver cancer-1 (p120RhoGAP/DLC1), variant 4 (protein, UniProt Q96QB1-4 1-1017)
chain: MKLEISPHRKRSDDSDEDEPCAISGKWTFQRDSKRWSRLEEFDVFSPKQDLVPGSPDDSHPKDGPSPGGTLMDLSERQEVSSVRSLSSTGSLPSHAPPSEDAATPRTNSVISVCSSSNLAGNDDSFGSLPSPKELSSFSFSMKGHEKTAKSKTRSLLKRMESLKLKSSHHSKHKAPSKLGLIISGPILQEGMDEEKLKQLNCVEISALNGNRINVPMVRKRSVSNSTQTSSSSSQSETSSAVSTPSPVTRTRSLSACNKRVGMYLEGFDPFNQSTFNNVVEQNFKNRESYPEDTVFYIPEDHKPGTFPKALTNGSFSPSGNNGSVNWRTGSFHGPGHISLRRENSSDSPKELKRRNSSSSMSSRLSIYDNVPGSILYSSSGDLADLENEDIFPELDDILYHVKGMQRIVNQWSEKFSDEGDSDSALDSVSPCPSSPKQIHLDVDNDRTTPSDLDSTGNSLNEPEEPSEIPERRDSGVGASLTRSNRHRLRWHSFQSSHRPSLNSVSLQINCQSVAQMNLLQKYSLLKLTALLEKYTPSNKHGFSWAVPKFMKRIKVPDYKDRSVFGVPLTVNVQRTGQPLPQSIQQAMRYLRNHCLDQVGLFRKSGVKSRIQALRQMNEGAIDCVNYEGQSAYDVADMLKQYFRDLPEPLMTNKLSETFLQIYQYVPKDQRLQAIKAAIMLLPDENREVLQTLLYFLSDVTAAVKENQMTPTNLAVCLAPSLFHLNTLKRENSSPRVMQRKQSLGKPDQKDLNENLAATQGLAHMIAECKKLFQVPEEMSRCRNSYTEQELKPLTLEALGHLGNDDSADYQHFLQDCVDGLFKEVKEKFKGWVSYSTSEQAELSYKKVSEGPPLRLWRSVIEVPAVPEEILKRLLKEQHLWDVDLLDSKVIEILDSQTEIYQYVQNSMAPHPARDYVVLRTWRTNLPKGACALLLTSVDHDRAPVVGVRVNVLLSRYLIEPCGPGKSKLTYMCRVDLRGHMPEWYTKSFGHLCAAEVVKIRDSFSNQNTETKDTKSR
